These results are taken from paper PMC9700037.

Where a chain is given by its changes, count along the chain named. These are yes or no findings as the source states them, for the method shown. Binding seen in cells or lysates may run through a third protein. A result given as binding can be weak or reduced; the word gives no strength.

One experiment addresses T1, NLRP1-FIIND (wt) (human) (UniProt Q9C000).
T1 sequence: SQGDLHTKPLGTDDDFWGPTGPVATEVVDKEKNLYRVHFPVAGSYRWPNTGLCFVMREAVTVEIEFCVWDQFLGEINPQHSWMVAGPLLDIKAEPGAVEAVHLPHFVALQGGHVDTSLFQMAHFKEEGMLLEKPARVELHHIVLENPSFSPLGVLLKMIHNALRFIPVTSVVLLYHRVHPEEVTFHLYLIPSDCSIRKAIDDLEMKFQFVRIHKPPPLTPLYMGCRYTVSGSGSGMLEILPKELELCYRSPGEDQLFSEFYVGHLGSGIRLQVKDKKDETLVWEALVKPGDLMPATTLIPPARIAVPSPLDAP
Nature of the experiment: pull-down; GST pull-down of GST-tev-FIIND from Sf9 cells co-infected with His6-DPP9 (with or without SUMO-UPA); released from the beads by TEV; SDS-PAGE.

In experiment [1] the target is T2, NLRP1-FIIND (M1184V) (human) (UniProt Q9C000).
T2 sequence: T1 sequence with M121V
The experiment is described as above.

For the substance “free UPA domain (from the SUMO-UPA construct) (human) (domain or fragment)”, the binding result (in the experiment with NLRP1-FIIND (wt) (human); in experiment [1]) was “binds” each time.
